Experimental data from patent US9388213B2, “Polycomb repressive complex 2 (PRC2) inhibitors and uses thereof” (The Rockefeller University, priority 2012, dated 2016).
Not every detail of the peptide structures is certain; ends, links or a residue may be inferred.

Chains of the proteins cited; added tags and fusions are not shown.
UniProt Q15910, whole entry: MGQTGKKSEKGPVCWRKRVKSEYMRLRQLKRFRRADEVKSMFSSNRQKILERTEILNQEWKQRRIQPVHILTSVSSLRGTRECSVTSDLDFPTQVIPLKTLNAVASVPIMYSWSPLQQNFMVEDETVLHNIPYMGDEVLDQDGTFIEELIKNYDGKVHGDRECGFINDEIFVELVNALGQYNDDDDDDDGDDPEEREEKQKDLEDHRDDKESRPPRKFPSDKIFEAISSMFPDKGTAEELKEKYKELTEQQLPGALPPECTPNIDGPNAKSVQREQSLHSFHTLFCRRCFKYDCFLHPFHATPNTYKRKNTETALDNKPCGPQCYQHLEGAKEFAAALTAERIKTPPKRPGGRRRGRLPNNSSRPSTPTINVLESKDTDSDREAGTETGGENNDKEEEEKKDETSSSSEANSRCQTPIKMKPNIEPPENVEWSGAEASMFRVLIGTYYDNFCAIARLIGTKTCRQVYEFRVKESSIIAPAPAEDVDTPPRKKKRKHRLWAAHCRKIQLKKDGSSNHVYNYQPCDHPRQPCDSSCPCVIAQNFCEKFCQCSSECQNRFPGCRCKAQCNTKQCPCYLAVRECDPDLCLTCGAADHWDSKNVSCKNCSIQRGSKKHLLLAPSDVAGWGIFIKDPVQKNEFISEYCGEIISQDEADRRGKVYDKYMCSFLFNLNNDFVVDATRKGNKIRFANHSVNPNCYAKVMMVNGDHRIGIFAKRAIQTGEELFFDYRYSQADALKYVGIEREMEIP

Molecular target: T1, PRC2 (Homo sapiens, UniProt Q15910)
T1 construct: Mono Q fractions containing stoichiometric components of PRC2 were pooled; made in house; FLAG-M2 immunoprecipitation from nuclear extract, then Mono Q
Assay: in vitro PRC2 histone methyltransferase reactions with H3 peptides added in trans
Format: biochemical
Conditions: titration of H3 peptide (18-37); 70 ng PRC2 and 0.8 μg wild-type oligonucleosomes; read-out: median inhibitory concentration (IC50) in in vitro methylation reactions
Protocol: Human EED protein containing an N-terminal FLAG-epitope was cloned in pCDH-EF1alpha-IRES-Puro (System Biosciences). Resulting lentivirus were used to establish stable 293T and Hela cell lines that express FLAG-hEED. Nuclear extracts were prepared from washed cell pellets as previously described (Lewis et al., “Daxx is an H3.3-specific Histone Chaperone and Cooperates with ATRX in Replication-Independent Chromatin Assembly at Telomeres,” Proc Natl Acad Sci USA 107: 14075-14080 (2010), which is hereby incorporated by reference in its entirety). FLAG-M2 immunoprecipitation of clarified nuclear extract was performed, followed by washing (250 mM KCl) and elution with 3XFLAG peptide (400 ng/μL). Eluate from the FLAG M2 beads was loaded onto a Mono Q ion exchange column. Mono Q fractions containing stoichiometric components of PRC2 were pooled. HEK293T cells expressing epitope-tagged Histone H3 were hypotonically lysed. […]

CC[C@H](C)[C@H](NC(=O)[C@H](CCCNC(=N)N)NC(=O)[C@H](C)NC(=O)[C@H](C)NC(=O)[C@H](CCCCN)NC(=O)[C@@H](NC(=O)[C@H](C)NC(=O)[C@H](CC(C)C)NC(=O)[C@H](CCC(N)=O)NC(=O)[C@H](CCCCN)NC(C)=O)[C@@H](C)O)C(=O)N[C@@H](CO)C(=O)N[C@@H](C)C(=O)N1CCC[C@H]1C(=O)N[C@@H](CO)C(=O)N[C@H](C(=O)NCC(=O)NCC(=O)N[C@H](C(=O)N[C@@H](CCCCN)C(=O)N[C@@H](CCCCN)C(N)=O)C(C)C)[C@@H](C)O [K27I]
IC50: 8.9 µM
